Laboratory results reported in PubChem BioAssay AID504834 (National Center for Advancing Translational Sciences (NCATS), 2011).
Hit rate of the full screen: of about 320,000 compounds, about 22,000 (6.9%) were called active. Inconclusive means that the source gave no clear call. Such entries were picked first, then a sample of the others. Calls come from the whole dose curve; as a rule, active = well fitted inhibition curve with a large enough effect; inconclusive = small, poorly fitted or top-dose-only effect, or another doubt; inactive = no such curve, though single readings can be large or run the other way. Potencies of inconclusive entries are doubtful fits and often do not repeat.
Potency is the fitted concentration of half-maximal effect.

Assay: Primary qHTS for delayed death inhibitors of the malarial parasite plastid, 96 hour incubation
Conditions: P. falciparum luciferase reporter growth; series mostly up to 28.7 µM
Summary of the method: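 Luminescence readout: decreased luciferase signal marks inhibited growth of reporter-expressing P. falciparum in infected red cells (2% hematocrit, 0.05% parasitemia final), exposed to compound two generations (96 h, 37 C, 5% CO2).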
In the case of Oc1ccc2c(c1)C1CCCC1(N1CCOCC1)O2 (stereo not drawn), the Potency was inconclusive: 0.0093 µM [inhibitor, full curve]. With CCn1c2ccccc2c2cc(N)ccc21 the Potency was active: 11.7 µM. In the case of COc1ccc(-n2c(C)cc(C(=O)CSc3nnc(-c4cccs4)o3)c2C)cc1, the Potency was inconclusive: 8.28 µM [inhibitor, partial curve, poor fit]. With C=C(C)Cn1c(=O)n(CC2CS2)c2ccccc21 (stereo not drawn) the Potency was inconclusive: 10.4 µM [inhibitor, single point]. In the case of CC(C)c1ccc(NC(=O)C2CCCN2S(=O)(=O)c2ccccc2F)cc1 (stereo not drawn), the Potency was inconclusive: 18.5 µM [inhibitor, single point]. For COc1ccc(NC(=O)c2ccccc2-c2ccccc2)c(C)c1, the Potency was “inactive”. For Cc1nnc(Nc2ccc(S(N)(=O)=O)cc2)c2ccccc12, the Potency was inconclusive: 10.4 µM [inhibitor, single point]. With O=C(Cn1ccc(=O)[nH]c1=O)NCCO the Potency was inconclusive: 18.5 µM [inhibitor, single point]. In the case of Cc1ccc(/C=N/NC(=O)c2c(-c3ccccc3)noc2C)c(O)c1, the Potency was inconclusive: 11.7 µM [inhibitor, single point]. For CC1CC(C)CN(C(=O)C2CC(=O)N(c3ccc(F)cc3)C2)C1 (stereo not drawn), the Potency was “inactive”. In the case of O=C(CSc1cccc[n+]1[O-])c1ccc(Cl)cc1, the Potency was inconclusive: 4.65 µM [inhibitor, partial curve, poor fit]. In the case of O=C(Cn1c(S(=O)(=O)Cc2ccccc2)nc2ccccc21)N1CCCCC1, the Potency was inconclusive: 18.5 µM [inhibitor, single point]. In the case of O=C(Nc1nc2ccccc2[nH]1)c1ccc([N+](=O)[O-])cc1, the Potency was inconclusive: 9.28 µM [inhibitor, single point]. With O=C(O)CSc1nc2ccc(C(=O)c3ccccc3)cc2[nH]1 the Potency was inconclusive: 9.28 µM [inhibitor, single point]. With CN(CCc1ccccn1)C(=O)Nc1ccc(C(C)(C)C)cc1 the Potency was “inactive”. With CC(CNS(=O)(=O)c1ccc2c(c1)CC(=O)N2C)c1ccccc1 (stereo not drawn) the Potency was active: 10.4 µM. For O=C(CSc1nnc(CCc2ccccc2)n1-c1ccc(Cl)cc1)NCc1ccccc1, the Potency was inconclusive: 7.38 µM [inhibitor, partial curve, poor fit]. In the case of O=S(=O)(c1ccc(-c2csc(-c3cccnc3)n2)cc1)N1CCOCC1, the Potency was “inactive”. In the case of Cc1ccc(-c2nc3ccccc3[nH]2)cn1, the Potency was “inactive”. In the case of COc1ccc(NC(=S)N(CCCN2CCCCCC2)Cc2cccs2)cc1, the Potency was inconclusive: 18.5 µM [inhibitor, single point]. With CC(NC(=O)c1cccc(C(F)(F)F)c1)C(c1ccccc1)N1CCOCC1 (stereo not drawn) the Potency was inconclusive: 10.4 µM [inhibitor, single point]. For C#CCNC(=O)C1=C[C@@H](c2ccc(Br)cc2)C[C@@H](OCc2ccc(CO)cc2)O1, the Potency was inconclusive: 9.28 µM [inhibitor, single point]. With COc1cc(C(C)=O)ccc1OCCCN1CCC(Cc2ccccc2)CC1 the Potency was inconclusive: 4.15 µM [inhibitor, single point]. For CC(C)(C)OC(=O)NCCCC[C@H](NC(=O)c1nc[nH]c1C(=O)NCc1ccccc1)C(=O)OC(C)(C)C, the Potency was inconclusive: 11.7 µM [inhibitor, single point]. For N#CC1=C2SCN(Cc3ccco3)CN2C(=O)CC1c1ccc(Cl)cc1 (stereo not drawn), the Potency was inconclusive: 9.28 µM [inhibitor, partial curve]. In the case of CCOC(=O)N1CCN(Cc2nc3cc(NC(=O)CC(C)C)ccc3n2C)CC1, the Potency was inconclusive: 3.7 µM [inhibitor, partial curve, poor fit]. For O=C(NC(=S)N1CCCC(C(F)(F)F)C1)c1ccc(F)cc1 (stereo not drawn), the Potency was inconclusive: 5.22 µM [inhibitor, partial curve]. With N#CCCn1cc(C(=O)Nc2ccccc2Br)c(-c2ccc3c(c2)OCCO3)n1 the Potency was inconclusive: 18.5 µM [inhibitor, single point]. With CC(Oc1ccccc1F)c1nnc(SCC(=O)Nc2ccc(N3CCOCC3)cc2)o1 (stereo not drawn) the Potency was inconclusive: 18.5 µM [inhibitor, single point]. With CS(=O)(=O)c1ccc2nc(NC(=O)CN3CCOCC3)sc2c1 the Potency was “inactive”. In the case of N#CC1(C#N)COC23CCCCC2C1(C#N)C(=N)O3 (stereo not drawn), the Potency was “inactive”. For COc1ccc(CC(=O)N2CCN(c3cccc(Cl)c3)CC2)cc1OC, the Potency was inconclusive: 18.5 µM [inhibitor, single point]. With CS(=O)(=O)c1ccc(C(=O)OCC(=O)NC2CCS(=O)(=O)C2)cc1[N+](=O)[O-] (stereo not drawn) the Potency was “inactive”. With CCOC(=O)C1CCC/C1=N\NC(=O)CN(c1cc(OC)ccc1OC)S(=O)(=O)c1ccccc1 (stereo not drawn) the Potency was “inactive”. In the case of COc1ccc(-n2c(-c3ccco3)nc3c(cnn3-c3ccccc3C)c2=O)cc1, the Potency was inconclusive: 0.828 µM [inhibitor, full curve, poor fit]. In the case of COc1cccc(NP(=O)(Oc2ccccc2)Oc2ccccc2)c1, the Potency was inconclusive: 13.1 µM [inhibitor, single point]. With O=S(=O)(Nc1nccs1)c1ccc(Nc2nnc(-c3ccccc3)c3ccccc23)cc1 the Potency was inconclusive: 18.5 µM [inhibitor, single point]. For Cc1nn(-c2ccccc2)c(C)c1CN, the Potency was inconclusive: 1.65 µM [inhibitor, full curve, poor fit]. In the case of CCOc1ccc(NC(=O)C2C3C=CC4(O3)C2C(=O)N(Cc2cccnc2)C4C(=O)NC2CCCCC2)cc1 (stereo not drawn), the Potency was inconclusive: 20.8 µM [inhibitor, single point]. In the case of CCN1CCN(c2ccc(S(=O)(=O)N3CCOCC3)cc2NC(=O)C(C)Oc2cccc(Cl)c2)CC1 (stereo not drawn), the Potency was inconclusive: 10.4 µM [inhibitor, partial curve]. For CCn1cc(C2N3CC4(C)CN2CC(C)(C3)C4=O)c2ccccc21 (stereo not drawn), the Potency was “inactive”. With COc1ccc(CN2CCN(C(=O)Cn3c(=O)oc4cc(Cl)ccc43)CC2)c(OC)c1OC the Potency was inconclusive: 10.4 µM [inhibitor, single point]. For COC(=O)/C(=C/c1c[nH]c2ccccc12)NC(C)=O, the Potency was inconclusive: 10.4 µM [inhibitor, partial curve, poor fit].
